Structures were worked out from names or drawings and are uncertain.

This assay deals with CDK2 (Homo sapiens, UniProt P24941). Kind of assay: Phospho-RB measurement in OVCAR3 cells (HTRF phospho-RB cellular kit). As to conditions: read-out: CDK2 IC50, inhibition of RB phosphorylation at S807/811 (HTRF, TR-FRET ratio 665/620), 24 h compound treatment, 0.3 to 10,000 nM. On the procedure: Biological Example 1: Phospho-RB Measurement in OVCAR3 Cells
The ability of compounds of Formula (I) to inhibit CDK2 was determined in OVCAR3 cells by measuring inhibition of phosphorylation of RB protein at S780 and S807/811. Phosphorylation of RB protein at S807/811 were measured using HTRF phospho-RB cellular kits (Cat #64RBS807PEG) from Cisbio.
On Day 1, OVCAR3 cells were seeded into 96-well tissue-culture treated plates at 20,000 cells/well in 200 μL and incubated overnight at 37° C. in CO2 atmosphere. On Day 2, the cells were treated with test compounds at concentrations from 0.3 to 10,000 nM using HP D300 digital dispenser. Twenty-four hours after compound treatment, cell culture media was removed by flicking the plate and tapping the plate against clean paper towel. Immediately 30 μL 1× lysis buffer was supplemented from the kit and the plate was incubated at room temperature on shaker for 30 min. After homogenization by pipetting up and down, 8 μL cell lysate from 96-well cell culture plate was transferred to 384-well small volume white detection plate. […]
Detection plates were incubated for 4 h at room temperature and read on ClarioStar (BMG Labtech) in TR-FRET mode ([…]). […] Half maximal inhibition concentration (IC50) values are calculated with a four-parameter logistic fit using GraphPad Prism (version 8; La Jolla, CA).

Regarding `O=S1(=O)CC2(CC(Nc3nccc(-c4sc(N5C6CCC5CN(CC(F)(F)F)C6)nc4-c4cccc(NS(=O)(=O)N5CCc6ccc(Cl)cc65)c4F)n3)C2)C1`, the IC50 was 0.222 µM.

The values are drawn from patent publication US20260274833A1 (NiKang Therapeutics, Inc., priority 2022, published 2026).
